At least one structure is not confirmed: it was looked up by name or label, or the drawing left a doubt.
Test: In vitro release from coated (and extruded) polymeric implants
Type: physicochemical
Conditions: PBS with 10% bovine serum
Experimental: To formulate the “coated” polymeric implants, blank P-80 implants (1.4 mm dia) were then prepared by dissolving P-80:F68 (9:1) in dichloromethane, followed by evaporation of the solvent in a Petri dish under hood and extrusion of the molten polymer through a silastic tubing mold, similar to the methodologies described herein above. […] For coating, one end of the blank implant (2.5-3.5 cm) was inserted into a silastic tube plug (6 mm long, 1.4 mm dia) while the other end of the plug was attached with a pipet tip. Coatings were then added by dipping the blank implant into the solution with intermittent drying with cool air using a commercial hair dryer and placing them under hood. […] The assembly was placed under hood overnight to remove the residual DCM, implants were excised in 1 or 2 cm lengths and stored in amber vials under argon at -20° C. until used. The rate of in vitro release for the implants was subsequently measured. […] The vials were placed in a water bath (Julabo S W 23, Seelback, Germany) at 37° C. with constant agitation at 110 rpm. The medium was changed every 24 h.

## O=C(/C=C/c1ccc(O)cc1)CC(=O)/C=C/c1ccc(O)cc1 [curcuminoid III, bisdemethoxycurcumin]
  cumulative release over 3 weeks (21 days): 51.4%
